# Results as given in PubChem BioAssay AID2685 (National Center for Advancing Translational Sciences (NCATS), 2010).
# Some of the results follow. Further columns of the screen follow, without active or inactive calls. Most of these compounds were active or inconclusive in the main read-out, so they are no random draw. Potencies come from curve fits of mixed quality, noted in brackets.
# Experiment: qHTS Assay for Lipid Storage Modulators in Drosophila S3 Cells;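 for cell number change: cells counted by Cell Tracker Red CMTPX staining in the red channel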
# Settings: BODIPY lipid droplet fluorescence, 18-24 h; for cell number change: measured here: cell count max response, cells fed with added oleic acid
# Outline: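 Drosophila S3 cells loaded with oleic acid (400 uM, as added) and compounds at several concentrations; lipid droplets imaged by 488-nm laser-scanning cytometry, 500–530 nm intensity and object ratio to cell channel. Percent activity normalized to 20 uM Triacsin C.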
# [1] = measured here: lipid fluorescence (Fed channel) AC50, cells fed with added oleic acid
# [2] = measured here: cell number channel AC50, cells fed with added oleic acid
compound,measurement,setting,value
CC1(C)CC(NC(=O)COc2ccc(Cl)cc2Cl)CC(C)(C)N1,cell number change,,-4.76%
same,AC50,[1],"6.51 µM [falling, single point]"
CC(=O)N1c2ccc(S(=O)(=O)N3CCCCC3)cc2CC1C(=O)Nc1ccc(F)cc1C (stereo not drawn),cell number change,,-23.8%
same,AC50,[2],"4.11 µM [falling, full curve, poor fit]"
same,AC50,[1],"18.4 µM [rising, partial curve]"
CCOC(=O)/C(=C\C=C\N1CCOCC1)C(C)=O,cell number change,,31.6%
same,AC50,[2],"29.1 µM [rising, single point]"
same,AC50,[1],"29.1 µM [rising, single point]"
COc1ccccc1C(=O)NC(CCSC)C(=O)N1CCN(C/C=C/c2ccccc2)CC1 (stereo not drawn),cell number change,,28.8%
same,AC50,[2],"1.64 µM [rising, full curve, poor fit]"
same,AC50,[1],"20.6 µM [rising, partial curve, poor fit]"
Cc1ccc(NC(=O)Cn2c(O)c(N=NC(=O)c3cc([N+](=O)[O-])ccc3O)c3ccccc32)cc1,cell number change,,-14.4%
CC(C)CC1Nc2ccc(C(=O)NCc3ccc4c(c3)OCO4)cc2NC1=O (stereo not drawn),cell number change,,26.9%
COc1ccc2c(c1)C(NC(C)=O)C(=O)N2C (stereo not drawn),cell number change,,-16.4%
same,AC50,[2],"0.517 µM [falling, full curve]"
same,AC50,[1],"0.259 µM [falling, full curve, poor fit]"
COc1cccc(NC(=O)CN(C)C(=O)c2ccc3ccccc3c2)c1,cell number change,,20.5%
same,AC50,[1],"29.1 µM [rising, single point]"
Cc1ccc(NC(=O)CCC(=O)NNC(=O)c2cccs2)cc1C,cell number change,,20.7%
same,AC50,[1],"29.1 µM [rising, single point]"
COCCCNc1nc(N)c([N+](=O)[O-])c(Nc2ccccc2OC)n1,cell number change,,-4.8%
Cc1cc(C)cc(NC(=O)N2CCCN(c3c(Cl)cncc3Cl)CC2)c1,cell number change,,-41.9%
same,AC50,[2],"29.1 µM [falling, single point]"
same,AC50,[1],"20.6 µM [falling, single point]"
O=C(COC(=O)CCc1ccccc1)NC1CCS(=O)(=O)C1 (stereo not drawn),cell number change,,-25%
same,AC50,[2],"0.82 µM [falling, full curve, poor fit]"
CCOC(=O)N/N=C\c1ccc(OC/C=C/c2ccccc2)c(OC)c1,cell number change,,-32.8%
same,AC50,[2],"29.1 µM [falling, single point]"
COC(=O)c1ccc(NC(=O)C2CCCN2S(=O)(=O)c2ccc(C)cc2)cc1 (stereo not drawn),cell number change,,-6.4%
same,AC50,[1],"29.1 µM [falling, single point]"
COC(=O)c1cc(Cl)c(NC(=O)c2cc(OC)c(OC)c(OC)c2)cc1OC,AC50,[2],"2.91 µM [rising, partial curve]"
Cc1cccc([N+](=O)[O-])c1NC(=O)COC(=O)c1nc2nccc(C)n2n1,cell number change,,15.2%
same,AC50,[1],"0.092 µM [rising, full curve, poor fit]"
CCOC(=O)c1nn(C23CC4CC(CC(C4)C2)C3)c2c1C(=O)N(c1ccc(C)cc1)C2=O,cell number change,,-33.9%
same,AC50,[2],"20.6 µM [falling, single point]"
same,AC50,[1],"6.51 µM [rising, single point]"
COc1ccc(-c2cc(C(=O)N3CCN(c4ccc(F)cc4)CC3)no2)cc1OC,cell number change,,1.8%
same,AC50,[1],"11.6 µM [rising, single point]"
CCOP(=O)(OCC)/C(C#N)=C/c1ccc([N+](=O)[O-])cc1,cell number change,,2.78%
O=S(=O)(c1ccccc1F)N1CCC(c2nc3ccccc3[nH]2)CC1,cell number change,,10.7%
same,AC50,[1],"7.31 µM [falling, partial curve]"
O=C(O)c1ccc(-c2nc3ccccc3[nH]2)cc1,cell number change,,107%
same,AC50,[2],"5.17 µM [rising, full curve]"
same,AC50,[1],"11.6 µM [rising, partial curve]"
CCOC(=O)c1c(NC(=O)c2ccc(S(=O)(=O)N(C)CC3CCCO3)cc2)sc2c1CC(C)(C)NC2(C)C (stereo not drawn),cell number change,,4.09%
CN(C(=O)c1cccc(C#N)c1)c1nnc(-c2cnccn2)s1,cell number change,,31%
same,AC50,[2],"6.51 µM [rising, partial curve]"
COc1ccc(CCNC(=O)CC(c2ccccc2)c2cccc(C)c2O)cc1OC (stereo not drawn),cell number change,,-63.4%
same,AC50,[2],"20.6 µM [falling, single point]"
same,AC50,[1],"23.1 µM [falling, partial curve]"
Cc1sc2ccc3sccc3c2[n+]1C,cell number change,,-24.7%
same,AC50,[1],"4.11 µM [falling, full curve]"
O=C(NC12CC3CC(CC(C3)C1)C2)N1CC2Cc3cccc(=O)n3C(C2)C1 (stereo not drawn),AC50,[2],"6.51 µM [rising, single point]"
CCc1ccccc1OCC(=O)Nc1cc(S(=O)(=O)N2CCOCC2)ccc1N1CCCCC1,cell number change,,-19.2%
same,AC50,[1],"0.366 µM [falling, full curve]"
CN(CC(=O)Nc1cccc(F)c1)C(=O)c1ccccc1Cc1ccccc1,cell number change,,24.1%
same,AC50,[1],"6.51 µM [rising, single point]"
O=C(NCc1ccccc1)C(c1ccco1)N(C(=O)c1csnn1)c1ccccc1 (stereo not drawn),cell number change,,-27.6%
same,AC50,[1],"6.51 µM [rising, single point]"
COc1ccc(C(=O)N/N=C(\CCC(=O)O)c2ccc(C(C)(C)C)cc2)cc1OC,cell number change,,-18%
same,AC50,[2],"0.58 µM [rising, partial curve]"
CCN(CC(=O)Nc1c(F)cccc1F)C(=O)c1ccc(NC(=O)CC2SC(N3CCCC3)=NC2=O)cc1 (stereo not drawn),cell number change,,-19.5%
COc1ccc(NC(=O)Nc2nnc(Cc3ccc(OC)c(OC)c3)s2)cc1,cell number change,,-17.9%
Cc1ccc(C(=O)Nc2c(N)nc(SCC(=O)NCC3CCCO3)[nH]c2=O)cc1 (stereo not drawn),cell number change,,5.82%
same,AC50,[1],"5.17 µM [rising, single point]"
CCCn1nc(C(=O)Nc2ccc(N3CCOCC3)cc2)c2ccccc2c1=O,cell number change,,-38.7%
same,AC50,[2],"29.1 µM [falling, single point]"
same,AC50,[1],"6.51 µM [rising, full curve]"
Cc1ccc(SCCC(=O)OCC(=O)Nc2ccc(C(N)=O)cc2)cc1,cell number change,,10%
same,AC50,[1],"0.00461 µM [falling, full curve, poor fit]"
COC(=O)N/N=C(\C)c1ccccc1OC(F)F,cell number change,,-12.4%
same,AC50,[2],"1.03 µM [falling, full curve, poor fit]"
same,AC50,[1],"2.06 µM [falling, partial curve]"
CC(C)OC(=O)Nc1ccc2c(c1)N(C(=O)N1CCN(C)CC1)c1ccccc1CC2,cell number change,,19.3%
CC(=O)N1c2c(cc(Br)cc2S(=O)(=O)N2CCN(c3ccccc3F)CC2)CC1C (stereo not drawn),cell number change,,32.9%
same,AC50,[1],"6.51 µM [rising, single point]"
CCCN(C1CCS(=O)(=O)C1)S(=O)(=O)c1ccc2ccccc2c1 (stereo not drawn),cell number change,,-11.8%
same,AC50,[1],"2.06 µM [falling, single point]"
CCOC(=O)c1cnc2c(-c3ccc(Cl)cc3)cnn2c1C,cell number change,,-17.8%
same,AC50,[1],"32.6 µM [falling, single point]"
CCOC(=O)C1(C(F)(F)F)N=C(N(C)C)OC(N(C)C)=N1,cell number change,,6.19%
same,AC50,[1],"29.1 µM [falling, single point]"
CCCCS(=O)(=O)Nc1ccc(N2CCOCC2)c(S(=O)(=O)N2CCOCC2)c1,cell number change,,22.2%
same,AC50,[1],"4.11 µM [falling, single point]"
COCc1cc(C)n(CC(=O)OC)c(=O)c1C#N,cell number change,,16.9%
O=C(Nc1nnc(S(=O)(=O)N2CCCC2)s1)c1ccccc1F,cell number change,,3.89%
same,AC50,[1],"29.1 µM [falling, single point]"
O=c1[nH]c(CSc2ncc(-c3ccc(F)cc3)n2Cc2ccco2)nc2ccccc12,cell number change,,-20.2%
O=c1cc(CO)occ1OCc1cccc(F)c1,cell number change,,-29.4%
same,AC50,[1],"29.1 µM [falling, single point]"
CCOc1ccc(C(C)=O)cc1COC(=O)c1ccccc1C(=O)N(C)Cc1ccccc1,cell number change,,83.5%
same,AC50,[2],"2.91 µM [rising, full curve]"
COc1ccc(OCCC(=O)N2CCCCC2)cc1,cell number change,,11.1%
same,AC50,[1],"29.1 µM [rising, single point]"
O=C(Cn1c(-c2cncs2)nc2ccccc21)NCc1ccccc1,cell number change,,91.2%
same,AC50,[2],"23.1 µM [rising, single point]"
same,AC50,[1],"0.461 µM [falling, single point]"
CCOc1ccc(-c2nnc(-c3ccco3)o2)cc1OCC,cell number change,,0.974%
O=C(CN(Cc1ccccc1)S(=O)(=O)c1ccc(F)cc1)NCc1ccccn1,cell number change,,-16.7%
same,AC50,[1],"5.17 µM [rising, single point]"
Cn1c(=O)c2c(ncn2CC(N)=O)n(C)c1=O,cell number change,,-51.4%
same,AC50,[2],"0.259 µM [falling, full curve, poor fit]"
O=C(Nc1cccc2ncccc12)C12CC3CC(CC(C3)C1)C2,cell number change,,0.694%
same,AC50,[1],"0.259 µM [rising, partial curve, poor fit]"
COc1ccc(N=Nc2nc(-c3ccccc3)c(-c3ccccc3)[nH]2)cc1,cell number change,,-41.3%
same,AC50,[2],"4.11 µM [falling, full curve]"
same,AC50,[1],"2.31 µM [falling, full curve]"
Cc1onc(-c2ccccc2)c1C(=O)Nc1ccc(N2CCOCC2)cc1,AC50,[1],"6.51 µM [falling, partial curve, poor fit]"
O/C=c1\ccc2cccc3nc(C(F)(F)F)nc1c23,cell number change,,-35.5%
same,AC50,[2],"29.1 µM [falling, partial curve, poor fit]"
same,AC50,[1],"16.4 µM [falling, partial curve, poor fit]"
COc1ccc(C2=NOC(C(=O)NCC(C)C)C2)cc1 (stereo not drawn),cell number change,,19.6%
same,AC50,[1],"20.6 µM [rising, partial curve, poor fit]"
Cc1nn(CCC(=O)N2CCN(S(=O)(=O)c3ccc(Cl)cc3)CC2)c(C)c1C,cell number change,,10.7%
same,AC50,[1],"29.1 µM [rising, partial curve, poor fit]"
Cc1ccccc1S(=O)(=O)Cc1ccc(C(=O)NCCCN2CCN(C)CC2)o1,cell number change,,3.33%
same,AC50,[2],"0.103 µM [falling, full curve, poor fit]"
same,AC50,[1],"0.116 µM [falling, full curve, poor fit]"

# A section taken from the entries so far:
compound,measurement,setting,value
CCOC(=O)C1(C(F)(F)F)N=C(N(C)C)OC(N(C)C)=N1,AC50,[1],"29.1 µM [falling, single point]"
CCCCS(=O)(=O)Nc1ccc(N2CCOCC2)c(S(=O)(=O)N2CCOCC2)c1,cell number change,,22.2%
same,AC50,[1],"4.11 µM [falling, single point]"

# Some of the entries so far, bar-delimited.
compound | measurement | setting | value
O=C(COC(=O)CCc1ccccc1)NC1CCS(=O)(=O)C1 (stereo not drawn) | cell number change |  | -25%
same | AC50 | [2] | 0.82 µM [falling, full curve, poor fit]
CCOC(=O)N/N=C\c1ccc(OC/C=C/c2ccccc2)c(OC)c1 | cell number change |  | -32.8%
same | AC50 | [2] | 29.1 µM [falling, single point]
COC(=O)c1ccc(NC(=O)C2CCCN2S(=O)(=O)c2ccc(C)cc2)cc1 (stereo not drawn) | cell number change |  | -6.4%
same | AC50 | [1] | 29.1 µM [falling, single point]
